What all share (assay): DAPPL (digital affinity profiling via proximity ligation, sequencing)
What all share (details): 10 mM Tris-HCl pH 7.5, 50 mM NaCl, 1 mM DTT, 4% glycerol, room temperature, 30 min; GST-TFs on glutathione beads, 16-mer random dsDNA library, 0.1% …; high values mean tight binding; double strand, one strand shown; scale: fold enrichment (6-mer frequency, TF over GST control)

The chains behind the UniProt entries cited, without tags or fusion partners. Where a name states a change or a piece, a line headed by the entry shows the natural chain unless it says otherwise.
UniProt O43186: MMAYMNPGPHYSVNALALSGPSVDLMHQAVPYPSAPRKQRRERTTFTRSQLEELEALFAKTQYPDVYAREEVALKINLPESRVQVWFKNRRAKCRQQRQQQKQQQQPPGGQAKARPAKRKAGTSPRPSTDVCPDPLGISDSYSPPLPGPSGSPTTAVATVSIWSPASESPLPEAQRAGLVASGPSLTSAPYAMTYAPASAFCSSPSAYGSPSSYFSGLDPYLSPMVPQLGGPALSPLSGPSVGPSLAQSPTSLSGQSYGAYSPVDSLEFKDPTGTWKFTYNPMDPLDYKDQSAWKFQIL

One assay deals with T1, FEV (UniProt Q99581).
T1 sequence: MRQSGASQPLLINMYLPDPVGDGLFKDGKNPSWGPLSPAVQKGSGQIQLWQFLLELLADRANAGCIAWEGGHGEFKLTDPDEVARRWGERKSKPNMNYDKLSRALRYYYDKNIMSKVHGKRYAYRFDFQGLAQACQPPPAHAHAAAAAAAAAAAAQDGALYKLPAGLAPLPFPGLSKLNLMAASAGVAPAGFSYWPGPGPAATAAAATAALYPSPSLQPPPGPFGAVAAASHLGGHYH

The next assay addresses CRX (UniProt O43186).
The target of a further assay is T2, ELF5 (UniProt Q9UKW6-2).
T2 sequence: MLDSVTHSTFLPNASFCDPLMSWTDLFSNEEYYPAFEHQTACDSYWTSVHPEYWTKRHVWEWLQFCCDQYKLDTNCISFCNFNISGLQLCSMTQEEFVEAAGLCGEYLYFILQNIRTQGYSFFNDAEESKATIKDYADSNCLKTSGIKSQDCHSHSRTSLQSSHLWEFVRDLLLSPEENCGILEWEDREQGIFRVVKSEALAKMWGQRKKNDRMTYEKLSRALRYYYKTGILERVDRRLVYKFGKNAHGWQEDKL

This is a selection; strong and weak results do not stand in their true shares. At the low end of the ranking the order means little.

As to AACGCC, the binding signal is 1.11 with FEV and 0.977 in the assay with CRX.
For CCACAT the same measures were 1.27 and 0.897.
In the case of CACTGT, the binding signal in the assay with FEV stood at 1.09; with CRX it was 0.83.
For CTCCGT the same measures were 1.14 and 0.892.
As for ACAACC, the binding signal came out at 1.34 with FEV and 0.852 with CRX.
Regarding GTTTCA, the values for the binding signal in the assay with FEV and in the assay with CRX were 1.31 and 0.926, respectively.
For GTTTGC, the binding signal turned out to be 0.961 in the assay with FEV and 0.857 with CRX.
For CCTTGC the same measures were 1.27 and 1.02.
ATTATA: the binding signal turned out to be 1.32 in the assay with FEV and 3.2 in the assay with CRX.
Turning to TGTACA, the values for the binding signal with FEV and with CRX were 1.24 and 0.905, respectively.
For CGGAAA the same measures were 3.21 and 0.603.
As for CATCTC, the binding signal with FEV came out at 1.2; in the assay with CRX, 1.16.
Consider GCCCGG, for which the binding signal worked out at 1.04 in the assay with FEV and 0.635 with CRX.
For the sequence CGTTCC, the binding signal was found to be 1.5 in the assay with FEV and 0.983 with CRX.
Turning to CTTCCA, the values for the binding signal in the assay with FEV and with CRX were 1.43 and 1.42, respectively.
For AGTAAT the same measures were 1.05 and 1.61.
Take CATGGG: the binding signal with FEV amounted to 0.958; in the assay with CRX, 0.896.
For CCGGCT the same measures were 1.8 and 1.6.
For the sequence AGTACC, the binding signal with FEV amounted to 0.981; with CRX, 0.727.
As for CTGCAG, the values for the binding signal with FEV and with CRX were 1.1 and 0.894, respectively.
For the sequence CCCGAT, the binding signal with FEV stood at 1.27; in the assay with CRX, 1.37.
For TTGTGC the same measures were 1.18 and 1.09.
For the sequence TGATTA, the binding signal worked out at 0.953 with FEV and 2.23 with CRX.
TCAACA: the binding signal was 1.05 with FEV and 0.99 in the assay with CRX.
Turning to ATTTGC, the binding signal in the assay with FEV was 1.29; with CRX it was 1.5.
AGGAAC: the binding signal in the assay with FEV was found to be 0.925; with CRX, 0.653.
For ACCCAT the same measures were 1.17 and 1.06.
For ACGGCT the same measures were 1.2 and 1.36.
In the case of GATTGC, the values for the binding signal with FEV and with CRX were 0.933 and 0.96, respectively.
For CACGGA the same measures were 0.96 and 0.694.
Take CGCCCC: the binding signal with FEV was found to be 1.21; with CRX, 0.834.
Take GGATAC: the binding signal with FEV was found to be 0.958; with CRX, 0.677.
Take AATACG: the binding signal turned out to be 1.19 with FEV and 1.36 in the assay with CRX.
In the case of GGAAAT, the binding signal was 4 with FEV and 0.929 with CRX.
For the sequence GGTTCT, the results for the binding signal in the assay with FEV and with CRX were 0.91 and 0.943, respectively.
On to TGCCAC, for which the binding signal with FEV came to 1.32; with CRX it was 0.841.
For GTTTTG the same measures were 1.16 and 0.98.
For the sequence TAAATT, the binding signal in the assay with FEV worked out at 1.25; in the assay with CRX, 1.76.
With TGTAAC, the values for the binding signal with FEV and with CRX were 1.23 and 0.995, respectively.
For the sequence CCACCT, the results for the binding signal with FEV and with CRX were 1.17 and 0.885, respectively.
Turning to GACTAC, the results for the binding signal in the assay with FEV and in the assay with CRX were 1.08 and 0.916, respectively.
For TAGTGT, the binding signal was 1.02 with FEV and 1.29 with CRX.
As to AGAAGT, the binding signal with FEV was found to be 0.899; with CRX, 0.997.
For GATGCG the same measures were 1.15 and 0.854.
In the case of GAACTG, the binding signal in the assay with FEV came out at 0.929; in the assay with CRX, 0.743.
As to CCACCG, the results for the binding signal with FEV and with CRX were 1.26 and 0.769, respectively.
Consider CCAACT, for which the binding signal is 1.27 with FEV and 1.01 in the assay with CRX.
Consider CTGTGC, for which the binding signal with FEV turned out to be 1.03; in the assay with CRX it was 0.892.
For TGTGGT the same measures were 0.968 and 0.819.
On to CGTTGT, for which the binding signal with FEV worked out at 0.967; with CRX it was 0.792.
In the case of ATAGGG, the binding signal amounted to 0.971 with FEV and 0.937 with CRX.
As to ACTTGT, the results for the binding signal in the assay with FEV and with CRX were 1.28 and 1.1, respectively.
For GTGTTT the same measures were 1.09 and 0.944.
GTTTGT: the figures for the binding signal with FEV and with CRX were 0.912 and 0.753, respectively.
Regarding ATTTCG, the binding signal with FEV was 1.25; with CRX, 1.45.
In the case of TGGAAG, the binding signal with FEV was 0.861; in the assay with CRX it was 0.909.
As to TCACGG, the binding signal with FEV is 0.971; in the assay with CRX, 0.834.
On to GGATGG, for which the figures for the binding signal with FEV and with CRX were 0.996 and 0.815, respectively.
On to ACTGGT, for which the binding signal with FEV came to 0.966; with CRX, 0.895.
As to GTGTCT, the binding signal with FEV came out at 0.944; in the assay with CRX, 0.784.
Turning to TAACCA, the binding signal with FEV turned out to be 1; in the assay with CRX it was 1.31.
Regarding AATCAC, the results for the binding signal with FEV and in the assay with CRX were 1.09 and 1.3, respectively.
Take CTGTAG: the binding signal was 0.883 with FEV and 0.78 in the assay with CRX.
For TCGACG the same measures were 0.98 and 0.913.
For GGATAT, the binding signal in the assay with FEV amounted to 3.83; with CRX it was 1.09.
As to TGGGTG, the binding signal in the assay with FEV is 0.957; in the assay with CRX, 0.75.
For ATAAGT, the binding signal in the assay with FEV amounted to 0.956; with ELF5, 0.99.
Take ATAACG: the values for the binding signal with FEV and in the assay with ELF5 were 0.98 and 0.995, respectively.
For the sequence CTTGAA, the figures for the binding signal with FEV and with ELF5 were 1.05 and 1.15, respectively.
Take ACTATG: in the assay with ELF5, the binding signal came out at 1.16.
On to GGGGCT, for which the results for the binding signal with FEV and with ELF5 were 0.998 and 0.925, respectively.
With GATCAT, the binding signal with FEV came to 0.954; in the assay with ELF5 it was 0.92.
On to TAACCG, for which, in the assay with ELF5, the binding signal is 1.05.
For the sequence CAAGTA, the values for the binding signal with FEV and with ELF5 were 1.04 and 1.06, respectively.
In the case of CCTCTG, the binding signal with FEV is 1.48; with ELF5 it was 1.5.
As for GGATTA, the binding signal amounted to 0.831 with FEV and 0.842 with ELF5.
For CAAAGA the same measures were 0.938 and 0.865.
With TGATCA, the binding signal in the assay with FEV came to 0.982; with ELF5 it was 0.985.
Turning to TTTAGT, the binding signal in the assay with FEV was 0.915; in the assay with ELF5, 0.947.
For CTATTA the same measures were 0.997 and 1.1.
Turning to CGCTAA, the binding signal was determined as 0.934 with FEV and 0.912 with ELF5.
In the case of AGTTTA, the results for the binding signal with FEV and with ELF5 were 0.856 and 0.979, respectively.
As for TCATCA, the values for the binding signal with FEV and with ELF5 were 1.12 and 1.16, respectively.
For ATCGCT the same measures were 1.06 and 1.05.
In the case of TCGGCT, the binding signal in the assay with FEV amounted to 0.889; with ELF5, 0.892.
Turning to AGCTTG, the results for the binding signal with FEV and with ELF5 were 0.845 and 0.884, respectively.
On to TTCTGA, for which the binding signal worked out at 1.22 with FEV and 1.26 in the assay with ELF5.
On to AGCTGA, for which the binding signal with FEV is 0.965; in the assay with ELF5 it was 0.983.
As for TCAATC, the binding signal in the assay with FEV was determined as 0.995; with ELF5, 0.994.
For the sequence TAGCGT, the binding signal in the assay with FEV and in the assay with ELF5 was 0.931 in each case.
With GCGGCT, the binding signal is 0.954 in the assay with FEV and 0.941 with ELF5.
For CATTAG, the binding signal is 0.881 with FEV and 0.928 with ELF5.
As for TCGAAG, the binding signal with FEV is 0.844; with ELF5, 0.867.
Regarding CCAGAT, the binding signal in the assay with FEV is 0.921; with ELF5, 0.889.
Consider TTGAGA, for which the binding signal is 0.925 with FEV and 0.856 in the assay with ELF5.
For the sequence TTAGAG, the binding signal in the assay with FEV was 0.83; with ELF5, 0.828.
For the sequence ATTGAG, the figures for the binding signal with FEV and in the assay with ELF5 were 0.965 and 0.935, respectively.
Regarding GTTAAA, the binding signal was determined as 0.991 in the assay with FEV and 0.961 with ELF5.
On to TAAGAG, for which the binding signal in the assay with FEV was found to be 0.829; in the assay with ELF5, 0.886.
On to ATGAAG, for which the binding signal with FEV was 0.939; with ELF5 it was 0.987.
GATTAG: the results for the binding signal in the assay with FEV and with ELF5 were 0.794 and 0.809, respectively.
Turning to CAGATA, the binding signal was 0.907 in the assay with FEV and 0.939 in the assay with ELF5.
For the sequence GGCATT, the binding signal in the assay with FEV was 1.04; with ELF5 it was 0.959.
Consider TTCAAC, for which the binding signal stood at 1.29 in the assay with FEV and 1.27 in the assay with ELF5.
Take TTCAGA: the results for the binding signal with FEV and in the assay with ELF5 were 0.933 and 0.935, respectively.
As to AGCCTA, the binding signal in the assay with FEV was determined as 1.01; with ELF5, 0.991.
TCGTTA: the binding signal is 0.859 with FEV and 0.931 in the assay with ELF5.
Regarding TAAACT, the binding signal came out at 1.11 with FEV and 1.16 with ELF5.
For TTAGCC the same measures were 0.987 and 0.97.
For CCAAAG the same measures were 0.972 and 0.891.
For AGCGAT the same measures were 1.05 and 0.996.
Regarding CCTTTG, the binding signal in the assay with FEV and with ELF5 was 1.31 each time.
As to TAACTA, the binding signal stood at 1.25 in the assay with FEV and 1.3 with ELF5.
With GAATCA, the binding signal in the assay with FEV was found to be 0.895; in the assay with ELF5, 0.866.
TCAGTA: the values for the binding signal in the assay with FEV and with ELF5 were 0.994 and 0.918, respectively.
With TTTACC, the binding signal in the assay with FEV came out at 1.32; in the assay with ELF5 it was 1.2.
For TAGCGC the same measures were 0.945 and 0.834.
For the sequence AAAGTC, the values for the binding signal with FEV and with ELF5 were 0.925 and 0.982, respectively.
For TTAGAT the same measures were 1.01 and 0.988.
For the sequence ATTAGA, the values for the binding signal in the assay with FEV and with ELF5 were 0.821 and 0.836, respectively.

(Values after PMC7862700.)
